The test has as its target human FGFR1 (Homo sapiens, UniProt P11362). The experiment in a line: Biacore (SPR).

The chains behind the UniProt entries cited, without tags or fusion partners. Residues count along the entry.
UniProt P11362, residues 22-376: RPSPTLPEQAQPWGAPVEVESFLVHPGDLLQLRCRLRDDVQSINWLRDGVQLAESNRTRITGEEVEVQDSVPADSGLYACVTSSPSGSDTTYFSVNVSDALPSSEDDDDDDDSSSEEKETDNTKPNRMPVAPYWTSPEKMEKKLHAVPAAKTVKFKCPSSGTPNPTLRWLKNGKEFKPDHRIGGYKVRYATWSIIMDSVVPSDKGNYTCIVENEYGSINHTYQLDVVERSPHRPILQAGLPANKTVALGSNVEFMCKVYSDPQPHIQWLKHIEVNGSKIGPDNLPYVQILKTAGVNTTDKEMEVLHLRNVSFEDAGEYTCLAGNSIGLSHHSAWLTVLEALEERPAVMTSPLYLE

These are yes or no findings as the source states them, for the method shown. Some entries that bind do so weakly or less than the wild type.

B1: FGF-P (peptide)
peptide: CYRSRKYSSWYVALKRC
On to B1, for which the binding result was “binds”.

These data come from patent publication US8871900B2, “Fibroblast growth factor (FGF) analogs and uses thereof” (University of Rochester, priority 2008, dated 2014).
